The target in one assay is T1, HA-Lkb1 (mouse) (UniProt Q9WTK7).
T1 sequence: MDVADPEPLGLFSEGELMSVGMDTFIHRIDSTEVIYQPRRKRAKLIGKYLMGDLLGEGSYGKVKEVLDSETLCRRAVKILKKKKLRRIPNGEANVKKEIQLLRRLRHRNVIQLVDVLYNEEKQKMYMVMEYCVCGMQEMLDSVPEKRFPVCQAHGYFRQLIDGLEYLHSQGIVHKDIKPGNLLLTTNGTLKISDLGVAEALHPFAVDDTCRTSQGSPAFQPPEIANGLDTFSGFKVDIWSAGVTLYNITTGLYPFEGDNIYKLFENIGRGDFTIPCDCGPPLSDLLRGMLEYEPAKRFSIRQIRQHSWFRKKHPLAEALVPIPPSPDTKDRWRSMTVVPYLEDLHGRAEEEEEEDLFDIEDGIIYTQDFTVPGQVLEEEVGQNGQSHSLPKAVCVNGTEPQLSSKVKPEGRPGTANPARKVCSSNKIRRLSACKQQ
Nature of the assay: co-IP; HEK293T cells co-transfected with EGFP-tagged Sec3/5/8 and HA-Lkb1; beads not stated; western blot. (In general: A western blot detects proteins with antibodies after separation by electrophoresis.)

The chains behind the UniProt entries cited, without tags or fusion partners. Where a name states a change or a piece, a line headed by the entry shows the natural chain unless it says otherwise.
UniProt Q0VGT2: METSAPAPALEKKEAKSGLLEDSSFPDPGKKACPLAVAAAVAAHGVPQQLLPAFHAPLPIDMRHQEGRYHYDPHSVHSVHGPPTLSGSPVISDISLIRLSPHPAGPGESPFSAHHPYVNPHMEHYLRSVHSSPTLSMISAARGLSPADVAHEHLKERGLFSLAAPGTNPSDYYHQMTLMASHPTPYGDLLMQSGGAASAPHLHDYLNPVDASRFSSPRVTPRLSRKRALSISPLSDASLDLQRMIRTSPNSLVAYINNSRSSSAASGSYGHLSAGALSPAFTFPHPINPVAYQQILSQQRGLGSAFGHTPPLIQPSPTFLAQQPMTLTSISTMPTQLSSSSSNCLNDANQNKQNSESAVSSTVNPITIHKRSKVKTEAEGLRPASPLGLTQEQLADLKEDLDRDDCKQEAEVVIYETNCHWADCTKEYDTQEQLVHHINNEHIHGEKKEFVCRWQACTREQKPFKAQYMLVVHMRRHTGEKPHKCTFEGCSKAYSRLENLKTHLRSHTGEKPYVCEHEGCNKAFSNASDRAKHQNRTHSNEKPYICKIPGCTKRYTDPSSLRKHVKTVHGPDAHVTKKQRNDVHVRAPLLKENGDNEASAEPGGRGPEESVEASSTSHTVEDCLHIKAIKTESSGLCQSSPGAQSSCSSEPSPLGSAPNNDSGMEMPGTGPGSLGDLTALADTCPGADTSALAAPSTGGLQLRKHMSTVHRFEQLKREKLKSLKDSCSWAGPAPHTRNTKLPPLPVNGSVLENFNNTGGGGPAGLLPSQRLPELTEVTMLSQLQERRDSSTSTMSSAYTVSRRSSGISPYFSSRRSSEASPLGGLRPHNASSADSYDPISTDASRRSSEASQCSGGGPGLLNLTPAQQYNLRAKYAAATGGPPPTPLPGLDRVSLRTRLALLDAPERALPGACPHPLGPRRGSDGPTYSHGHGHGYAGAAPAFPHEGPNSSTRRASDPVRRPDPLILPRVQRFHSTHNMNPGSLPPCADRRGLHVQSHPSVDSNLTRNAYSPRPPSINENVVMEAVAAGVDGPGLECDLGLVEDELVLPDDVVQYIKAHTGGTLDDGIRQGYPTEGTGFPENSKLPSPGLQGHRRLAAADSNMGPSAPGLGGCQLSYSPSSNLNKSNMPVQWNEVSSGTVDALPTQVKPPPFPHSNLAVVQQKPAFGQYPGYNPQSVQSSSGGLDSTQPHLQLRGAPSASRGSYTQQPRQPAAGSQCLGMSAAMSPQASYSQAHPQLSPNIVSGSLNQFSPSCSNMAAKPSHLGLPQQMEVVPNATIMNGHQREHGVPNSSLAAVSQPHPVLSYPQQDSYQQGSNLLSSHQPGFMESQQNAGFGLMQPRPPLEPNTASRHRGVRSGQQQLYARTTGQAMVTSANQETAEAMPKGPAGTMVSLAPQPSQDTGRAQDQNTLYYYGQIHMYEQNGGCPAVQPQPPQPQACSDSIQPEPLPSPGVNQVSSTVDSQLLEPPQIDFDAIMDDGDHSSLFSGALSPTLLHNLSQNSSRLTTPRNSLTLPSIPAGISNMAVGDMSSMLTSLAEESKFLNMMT
UniProt Q61025: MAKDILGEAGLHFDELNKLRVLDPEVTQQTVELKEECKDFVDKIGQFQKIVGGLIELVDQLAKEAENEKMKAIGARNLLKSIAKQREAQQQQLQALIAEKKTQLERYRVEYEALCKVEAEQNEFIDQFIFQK

The target of assay [1] is HA-Gli2(P1-6A), overexpressed in HEK293T (UniProt Q0VGT2). Kind of assay: co-IP; co-IP with HA-Gli2(P1-6A), Supplementary Fig. S4a; cells, beads and constructs not told in the text shown.

These are yes or no findings as the source states them, for the method shown. Binding seen in cells or lysates may run through a third protein. For some of these results: Binding can be weak; no strength is given. For some of these results: Where a sequence is shown, tags or fusion partners need not be part of it.

With EGFP-tagged Sec3, the binding result with HA-Lkb1 (mouse) is listed as “binds”.

Take EGFP-tagged Sec5: the binding entry in the assay with HA-Lkb1 (mouse) was “binds”.

As to EGFP-tagged Sec8, the binding entry with HA-Lkb1 (mouse) is listed as “binds”.

Regarding IFT20 (from UniProt Q61025 1-132), the binding entry in assay [1] is recorded as “no binding”.

The values above are taken from paper PMC10879184.
